# Reference: the supplement of paper PMC11438910
# Some of the results follow. Most of these values are background signal.
# B1: 4-173.5 (protein)
# chain 1: QLQLQESGPGLVKPSETLSLTCAVSGDSISSNYWSWIRQPPGKGLEWIGRISDGGGSTDYNPSLKSRVTISTDTSKNQFSLKLNSVTAADTAVYFCARGSYRVDYWGQGVLVTVSS
# chain 2: QAALTQPPSMSGSPGQSVTISCTGASSDIGGYNRVSWYQQHPANAPKLMIYDVSKRPSGVSDRFSGSKSGNTASLTISGLQADDEADYYCSSYAHINTALFGGGTRLTVL
# How the values were obtained:
# Test in all cases: fluorescence intensity of antibody binding to polysaccharide-coupled beads; higher = stronger binding
# [1] = target: pneumococcal polysaccharide Pn13
# [2] = target: pneumococcal polysaccharide Pn14
# [3] = target: pneumococcal polysaccharide Pn15A
# [4] = target: pneumococcal polysaccharide Pn15B
# [5] = target: pneumococcal polysaccharide Pn15C
# [6] = target: pneumococcal polysaccharide Pn15F
# [7] = target: pneumococcal polysaccharide Pn16A
# [8] = target: pneumococcal polysaccharide Pn16F
# [9] = target: pneumococcal polysaccharide Pn17A
# [10] = target: pneumococcal polysaccharide Pn17F
# [11] = target: pneumococcal polysaccharide Pn18A
# [12] = target: pneumococcal polysaccharide Pn18B
# [13] = antibody concentration 0.1 ng/mL
# [14] = antibody concentration 0.534724 ng/mL
# [15] = antibody concentration 2.8593 ng/mL
# [16] = antibody concentration 15.2894 ng/mL
# [17] = antibody concentration 81.7561 ng/mL
# [18] = antibody concentration 437.17 ng/mL
# [19] = antibody concentration 2337.65 ng/mL
# [20] = antibody concentration 12500 ng/mL
binder,measurement,setting,value
B1,fluorescence intensity,[1]; [13],20 MFI
same,fluorescence intensity,[1]; [14],19.8 MFI
same,fluorescence intensity,[1]; [15],21 MFI
same,fluorescence intensity,[1]; [16],41 MFI
same,fluorescence intensity,[1]; [17],220 MFI
same,fluorescence intensity,[1]; [18],1250 MFI
same,fluorescence intensity,[1]; [19],4200 MFI
same,fluorescence intensity,[1]; [20],6240 MFI
same,fluorescence intensity,[2]; [13],14 MFI
same,fluorescence intensity,[2]; [14],14.5 MFI
same,fluorescence intensity,[2]; [15],14 MFI
same,fluorescence intensity,[2]; [16],16.5 MFI
same,fluorescence intensity,[2]; [17],22.5 MFI
same,fluorescence intensity,[2]; [18],62.5 MFI
same,fluorescence intensity,[2]; [19],219 MFI
same,fluorescence intensity,[2]; [20],505 MFI
same,fluorescence intensity,[3]; [13],14 MFI
same,fluorescence intensity,[3]; [14],13.5 MFI
same,fluorescence intensity,[3]; [15],17.5 MFI
same,fluorescence intensity,[3]; [16],39.2 MFI
same,fluorescence intensity,[3]; [17],213 MFI
same,fluorescence intensity,[3]; [18],1130 MFI
same,fluorescence intensity,[3]; [19],4020 MFI
same,fluorescence intensity,[3]; [20],5830 MFI
same,fluorescence intensity,[4]; [13],18 MFI
same,fluorescence intensity,[4]; [14],19.5 MFI
same,fluorescence intensity,[4]; [15],23 MFI
same,fluorescence intensity,[4]; [16],32.5 MFI
same,fluorescence intensity,[4]; [17],104 MFI
same,fluorescence intensity,[4]; [18],452 MFI
same,fluorescence intensity,[4]; [19],1800 MFI
same,fluorescence intensity,[4]; [20],2930 MFI
same,fluorescence intensity,[5]; [13],17 MFI
same,fluorescence intensity,[5]; [14],15 MFI
same,fluorescence intensity,[5]; [15],18.8 MFI
same,fluorescence intensity,[5]; [16],35 MFI
same,fluorescence intensity,[5]; [17],186 MFI
same,fluorescence intensity,[5]; [18],1040 MFI
same,fluorescence intensity,[5]; [19],3540 MFI
same,fluorescence intensity,[5]; [20],4960 MFI
same,fluorescence intensity,[6]; [13],17.5 MFI
same,fluorescence intensity,[6]; [14],16.2 MFI
same,fluorescence intensity,[6]; [15],23.5 MFI
same,fluorescence intensity,[6]; [16],55.5 MFI
same,fluorescence intensity,[6]; [17],346 MFI
same,fluorescence intensity,[6]; [18],1580 MFI
same,fluorescence intensity,[6]; [19],5080 MFI
same,fluorescence intensity,[6]; [20],7300 MFI
same,fluorescence intensity,[7]; [13],13.5 MFI
same,fluorescence intensity,[7]; [14],14 MFI
same,fluorescence intensity,[7]; [15],14 MFI
same,fluorescence intensity,[7]; [16],16 MFI
same,fluorescence intensity,[7]; [17],27.5 MFI
same,fluorescence intensity,[7]; [18],140 MFI
same,fluorescence intensity,[7]; [19],899 MFI
same,fluorescence intensity,[7]; [20],1760 MFI
same,fluorescence intensity,[8]; [13],25 MFI
same,fluorescence intensity,[8]; [14],24.8 MFI
same,fluorescence intensity,[8]; [15],26 MFI
same,fluorescence intensity,[8]; [16],32 MFI
same,fluorescence intensity,[8]; [17],100 MFI
same,fluorescence intensity,[8]; [18],502 MFI
same,fluorescence intensity,[8]; [19],2000 MFI
same,fluorescence intensity,[8]; [20],3340 MFI
same,fluorescence intensity,[9]; [13],20.5 MFI
same,fluorescence intensity,[9]; [14],21 MFI
same,fluorescence intensity,[9]; [15],22.5 MFI
same,fluorescence intensity,[9]; [16],34.5 MFI
same,fluorescence intensity,[9]; [17],134 MFI
same,fluorescence intensity,[9]; [18],733 MFI
same,fluorescence intensity,[9]; [19],2680 MFI
same,fluorescence intensity,[9]; [20],4100 MFI
same,fluorescence intensity,[10]; [13],28 MFI
same,fluorescence intensity,[10]; [14],26.8 MFI
same,fluorescence intensity,[10]; [15],29.5 MFI
same,fluorescence intensity,[10]; [16],51.5 MFI
same,fluorescence intensity,[10]; [17],212 MFI
same,fluorescence intensity,[10]; [18],994 MFI
same,fluorescence intensity,[10]; [19],2990 MFI
same,fluorescence intensity,[10]; [20],4070 MFI
same,fluorescence intensity,[11]; [13],24.5 MFI
same,fluorescence intensity,[11]; [14],23.5 MFI
same,fluorescence intensity,[11]; [15],24.8 MFI
same,fluorescence intensity,[11]; [16],32.5 MFI
same,fluorescence intensity,[11]; [17],78.2 MFI
same,fluorescence intensity,[11]; [18],390 MFI
same,fluorescence intensity,[11]; [19],1600 MFI
same,fluorescence intensity,[11]; [20],2940 MFI
same,fluorescence intensity,[12]; [13],29 MFI
same,fluorescence intensity,[12]; [14],30.2 MFI

# 4 neighbouring entries from above, quoted:
binder,measurement,setting,value
B1,fluorescence intensity,[2]; [20],505 MFI
same,fluorescence intensity,[3]; [13],14 MFI
same,fluorescence intensity,[3]; [14],13.5 MFI
same,fluorescence intensity,[3]; [15],17.5 MFI
